Measurements from PubChem BioAssay AID588590 (National Center for Advancing Translational Sciences (NCATS), 2011).
Values joined by “and” are separate entries in the source; they are usually repeats but may differ in a detail not shown here. Equal values may be shown once. Among all 390,000 compounds or so, about 4,000 (1%) were called active. Inconclusive results, whose numbers are uncertain, are shown with a selection of clear calls. Calls come from the whole dose curve; as a rule, active = well fitted inhibition curve with a large enough effect; inconclusive = small, poorly fitted or top-dose-only effect, or another doubt; inactive = no such curve, though single readings can be large or run the other way. A potency beside an inconclusive call is a rough fit, not a confirmed value. Residues, ends and D or L forms follow the SMILES beside them.

Protein sequences, listed by entry. Tags and fused reporters are not part of them. Lines headed by an entry give the natural chain unless they say otherwise; changes in a name come on top.
UniProt Q9UNA4: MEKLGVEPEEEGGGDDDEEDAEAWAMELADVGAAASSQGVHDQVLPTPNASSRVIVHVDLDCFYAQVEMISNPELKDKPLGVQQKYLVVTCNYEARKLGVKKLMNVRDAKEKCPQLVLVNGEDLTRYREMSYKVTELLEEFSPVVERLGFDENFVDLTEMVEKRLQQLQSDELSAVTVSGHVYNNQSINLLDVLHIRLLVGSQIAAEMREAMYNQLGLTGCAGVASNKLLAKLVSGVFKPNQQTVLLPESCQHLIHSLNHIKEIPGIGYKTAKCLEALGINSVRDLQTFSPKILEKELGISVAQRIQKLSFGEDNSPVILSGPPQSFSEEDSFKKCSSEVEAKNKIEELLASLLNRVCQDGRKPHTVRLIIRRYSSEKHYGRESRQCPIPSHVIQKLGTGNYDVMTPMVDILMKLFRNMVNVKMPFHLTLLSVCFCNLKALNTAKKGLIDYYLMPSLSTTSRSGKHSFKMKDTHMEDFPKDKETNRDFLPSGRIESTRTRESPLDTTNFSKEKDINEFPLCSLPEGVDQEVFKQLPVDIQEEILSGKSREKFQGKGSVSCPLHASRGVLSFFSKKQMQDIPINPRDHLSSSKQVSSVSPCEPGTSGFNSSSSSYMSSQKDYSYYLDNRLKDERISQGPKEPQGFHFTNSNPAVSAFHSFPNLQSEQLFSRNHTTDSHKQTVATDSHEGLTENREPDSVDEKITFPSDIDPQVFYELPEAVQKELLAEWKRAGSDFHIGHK

target: DNA polymerase iota (Homo sapiens) (UniProt Q9UNA4); assay: qHTS for Inhibitors of Polymerase Iota; settings: Pol iota fluorescent replication assay, 10 min; series mostly up to 115 µM
Method in brief: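 Pol iota at 10 nM preincubated 15 min with compounds at room temperature; reaction started with fluorescent substrate, 50 nM final. Fluorescence read kinetically at 0 and 10 min; buffer-only wells as negative control.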
Potency is the fitted concentration of half-maximal effect.

Compound | Potency
C(=C\c1ccnc2ccccc12)/c1ccc(-[n+]2cc[n+](-c3ccc(/C=C/c4ccnc5ccccc45)cc3)cc2)cc1 | inactive
Cc1cccc(Oc2coc3cc(O)ccc3c2=O)c1 | inconclusive: 89.1 µM [inhibitor, single point]
Cc1ccc(C)n1NC(=O)c1ccc(O)cc1 | inconclusive: 89.1 µM [inhibitor, partial curve, poor fit]
O=C(NCCCN1CCOCC1)c1cc(-c2ccc(O)cc2)on1 | inconclusive: 2.24 µM [inhibitor, single point]
COc1cccc(-c2cc3c(-n4cccc4)ncnc3o2)c1 | inconclusive: 3.55 µM [inhibitor, partial curve, poor fit]
CSc1ccc(C2c3c(-c4ccccc4O)n[nH]c3C(=O)N2Cc2ccncc2)cc1 (stereo not given) | inconclusive: 100 µM [inhibitor, single point]
CCOC(=O)C1CCCN(C(=O)C(CCSC)NC(=O)COc2ccccc2)C1 (stereo not given) | inactive
CCCCCOc1ccc(/C=C/C(=O)NCCc2nc3ccccc3[nH]2)cc1OC | inconclusive: 79.4 µM [inhibitor, partial curve]
Oc1c(Br)cc(Br)cc1C=NCc1ccc(F)cc1 | inconclusive: 17.8 µM [inhibitor, partial curve, poor fit]
CCOC(=O)CC(=O)CSc1nc2c(sc(=S)n2-c2ccccc2)c(=O)[nH]1 | inconclusive: 22.4 µM [inhibitor, partial curve, poor fit]
O=C1ON=C(c2ccc(Cl)cc2)/C1=C/c1ccc(O)cc1 | inactive
Cc1ccc(C(c2sc3nc(-c4ccco4)nn3c2O)N2CCN(c3ccc(F)cc3)CC2)cc1 (stereo not given) | inactive
CN(C)CCCNC(=O)C[C@H]1C[C@H](C(=O)N2CCCCC2)[C@@]2(C)c3[nH]c4cc(CCC(=O)N(C)C)ccc4c3CCN2C1=O | inconclusive: 20 µM [inhibitor, partial curve, poor fit]
COc1cc2c(cc1OC)C(COc1cc(C)cc(C)c1)N(C(=O)C(C)(C)C)CC2 (stereo not given) | inactive
CCCCCCCCN1[C@@H](CC(=O)O)c2cc(C(F)(F)F)ccc2S1(=O)=O | inactive and inconclusive: 28.2 µM [inhibitor, partial curve]
O=C(COc1ccccc1Cl)c1ccc[nH]1 | inconclusive: 50.1 µM [inhibitor, partial curve]
COc1cc(OC)c(N2CC(C(=O)NCCC3=CCCCC3)CC2=O)cc1Cl (stereo not given) | inactive
CC(C)Cc1ccc(S(=O)(=O)N2CCN(C(=O)c3ccco3)CC2)cc1 | inconclusive: 89.1 µM [inhibitor, single point]
COC(=O)c1cc(-c2ccccc2)sc1N | inconclusive: 25.1 µM [inhibitor, single point]
COC(=O)c1ccc(C2N=C(c3cccs3)CC(c3ccccc3O)N2)cc1 (stereo not given) | inconclusive: 22.4 µM [inhibitor, partial curve, poor fit]
COc1cc2c(C(=O)N3CCN(c4ccccc4C)CC3)c(C)oc2cc1Br | inconclusive: 89.1 µM [inhibitor, single point]
COc1ccc(NC(=O)NNC(=O)COc2ccc3cc(Br)ccc3c2)cc1OC | inconclusive: 35.5 µM [inhibitor, full curve, poor fit]

Compound | Potency
Cc1cccc2cc3c(N)c(C#N)sc3nc12 | inconclusive: 28.2 µM [inhibitor, partial curve, poor fit]
CCn1c(=O)c([N+](=O)[O-])c(Cl)c2ccccc21 | inconclusive: 12.6 µM [inhibitor, partial curve, poor fit]
Cc1cc(NC(=O)c2ccc(C#N)cc2)on1 | inactive
COc1ccc(C(C(=O)NC2CCCC2)N(C(=O)c2snc(C(N)=O)c2N)c2cccc(O)c2)cc1 (stereo not given) | inconclusive: 15.8 µM [inhibitor, full curve, poor fit]
CC1C(=O)N2CCCc3cc(NC(=O)C(=O)NCc4ccccn4)cc1c32 (stereo not given) | inactive
Cc1ccc(NC(=O)N2CC=C(c3c[nH]c4ccccc34)CC2)cc1Cl | inconclusive: 70.8 µM [inhibitor, single point]
COC(=O)c1ccc(CSc2nnc(SCc3ccc(C(=O)OC)o3)s2)o1 | inconclusive: 17.8 µM [inhibitor, full curve]
Cc1ccc(-c2c(C(=O)N/N=C/C3CC=CCC3)nnn2-c2nonc2N)cc1 (stereo not given) | inconclusive: 63.1 µM [inhibitor, partial curve, poor fit]
CCC1S/C(=N/S(=O)(=O)c2ccc(N)cc2)NC1=O (stereo not given) | inactive
CN(Cc1ccccc1)c1nc2c(S(=O)(=O)c3cccc(Cl)c3)nnn2c2ccsc12 | inactive
O=C(COc1ccc(Cl)cc1)OCc1cc(=O)n2nc(C3CCCCC3)sc2n1 | inactive
COc1ccc(-c2nn(C)c3sc(C(=O)NCc4ccco4)cc23)cc1OC | inconclusive: 35.5 µM [inhibitor, single point]
O=c1c2oc3ccccc3c2n(Cc2ccccc2Cl)c(=O)n1Cc1ccc2c(c1)OCO2 | inactive
Cc1ccc(C(=O)NC(=S)Nc2ccccc2N2CCOCC2)cc1C | inconclusive: 100 µM [inhibitor, single point]
CCCCN1C(Nc2ccccc2)=NC[C@@H]1Cc1ccccc1 | inconclusive: 15.8 µM [inhibitor, single point]
O=C(Nc1ccc2oc(-c3ccccc3Cl)nc2c1)c1ncn[nH]1 | inconclusive: 70.8 µM [inhibitor, partial curve]
C=CCNC(=O)c1c(CSc2ccccc2)noc1C(=O)NCc1ccccc1 | inconclusive: 2.24 µM [inhibitor, partial curve, poor fit]
Cc1cc(C(=O)N/N=C/c2cccc3ccccc23)c(C)o1 | inactive
O=C(NCCN1CCc2ccccc2C1)C1CCN(S(=O)(=O)N2CCC3(CC2)OCCO3)CC1 | inconclusive: 89.1 µM [inhibitor, single point]
Cc1ccc(S(=O)(=O)c2nc(-c3cccs3)oc2N2CCC(C)CC2)cc1 | inconclusive: 79.4 µM [inhibitor, partial curve]
O=[N+]([O-])c1ccc(N/N=C\c2cccnc2)nc1 | inactive
O=C(Nc1nnc(SCCC2OCCO2)s1)C1CC(=O)N(c2ccc(F)cc2)C1 (stereo not given) | inconclusive: 28.2 µM [inhibitor, single point]

Reformatted: results already given.

| Compound | Potency |
| --- | --- |
| C(=C\c1ccnc2ccccc12)/c1ccc(-[n+]2cc[n+](-c3ccc(/C=C/c4ccnc5ccccc45)cc3)cc2)cc1 | inactive |
| O=C(NCCCN1CCOCC1)c1cc(-c2ccc(O)cc2)on1 | inconclusive: 2.24 µM [inhibitor, single point] |
| CCOC(=O)CC(=O)CSc1nc2c(sc(=S)n2-c2ccccc2)c(=O)[nH]1 | inconclusive: 22.4 µM [inhibitor, partial curve, poor fit] |
| COc1cc2c(cc1OC)C(COc1cc(C)cc(C)c1)N(C(=O)C(C)(C)C)CC2 (stereo not given) | inactive |
| CCCCCCCCN1[C@@H](CC(=O)O)c2cc(C(F)(F)F)ccc2S1(=O)=O | inactive and inconclusive: 28.2 µM [inhibitor, partial curve] |
| COc1cc(OC)c(N2CC(C(=O)NCCC3=CCCCC3)CC2=O)cc1Cl (stereo not given) | inactive |
| COC(=O)c1ccc(C2N=C(c3cccs3)CC(c3ccccc3O)N2)cc1 (stereo not given) | inconclusive: 22.4 µM [inhibitor, partial curve, poor fit] |
| COc1ccc(C(C(=O)NC2CCCC2)N(C(=O)c2snc(C(N)=O)c2N)c2cccc(O)c2)cc1 (stereo not given) | inconclusive: 15.8 µM [inhibitor, full curve, poor fit] |
| Cc1ccc(NC(=O)N2CC=C(c3c[nH]c4ccccc34)CC2)cc1Cl | inconclusive: 70.8 µM [inhibitor, single point] |
| COC(=O)c1ccc(CSc2nnc(SCc3ccc(C(=O)OC)o3)s2)o1 | inconclusive: 17.8 µM [inhibitor, full curve] |
| CCC1S/C(=N/S(=O)(=O)c2ccc(N)cc2)NC1=O (stereo not given) | inactive |
| CN(Cc1ccccc1)c1nc2c(S(=O)(=O)c3cccc(Cl)c3)nnn2c2ccsc12 | inactive |
| Cc1ccc(C(=O)NC(=S)Nc2ccccc2N2CCOCC2)cc1C | inconclusive: 100 µM [inhibitor, single point] |
| Cc1cc(C(=O)N/N=C/c2cccc3ccccc23)c(C)o1 | inactive |
| Cc1ccc(S(=O)(=O)c2nc(-c3cccs3)oc2N2CCC(C)CC2)cc1 | inconclusive: 79.4 µM [inhibitor, partial curve] |

Additional results

Compound | Potency
C[C@@H]1NC(=O)c2cc([N+](=O)[O-])cc(I)c2OCC[C@@H](C(=O)NC(CC(=O)O)C(N)=O)NC(=O)[C@H](CCC(=O)O)NC1=O (stereo not given in full) (HELM PEPTIDE1{A.E.[O=C([C@H](CCOc1c(I)cc([N+](=O)[O-])cc1C(=O)[*:3])N[*:1])[*:2]].[O=C(O)CC(N[*:1])C(=O)[*:2]].[am]}$PEPTIDE1,PEPTIDE1,1:R1-3:R3$$$V2.0) | inconclusive: 39.8 µM [inhibitor, single point]
CC(=O)N1CCc2c(sc3c2c(=O)n(-c2ccccc2C)c(=O)n3CC(=O)Nc2ccccc2)C1 | inactive
Cc1cccc(C#N)c1NC1=CC(=O)CC(C)(C)C1 | inconclusive: 25.1 µM [inhibitor, single point]
O=c1c2ccccc2cnn1-c1nc2ccccc2[nH]1 | inactive
Cc1cc(O)c(CN2CCN(c3ccccc3)CC2)c2oc(=O)cc(C)c12 | inactive
CCCN1C(C(=O)c2ccccc2)=C(OC(=O)COc2ccc(C)cc2)c2ccccc2S1(=O)=O | inactive
COc1ccc(C(=O)NNC(=O)COC(=O)c2sccc2C)cc1 | inconclusive: 89.1 µM [inhibitor, partial curve, poor fit]
CN1CCS/C1=C/C=C1/SC(=S)N(Cc2ccccc2)C1=O | inconclusive: 79.4 µM [inhibitor, partial curve]
c1ccc2c(c1)OCC(c1nnc3n1-c1ccccc1SC3)O2 (stereo not given) | inconclusive: 25.1 µM [inhibitor, single point]
O=C(NC1CC1)C1CCN(C2CCN(C(=O)CCOc3ccccc3)CC2)CC1 | inconclusive: 1.26 µM [inhibitor, full curve, poor fit]
CCN1CCN(C(=O)Cn2ncc3c4ccccc4n(Cc4c(C)cc(C)cc4C)c3c2=O)CC1 | inactive
CCCCN(CCCC)C(=O)c1c[nH]c2ccc(S(=O)(=O)Nc3cccc(Cl)c3C)cc2c1=O | active: 79.4 µM
O=S(=O)(Nc1ccccc1N1CCCCC1)c1ccc(Cl)s1 | inconclusive: 0.708 µM [inhibitor, full curve, poor fit]
C=C/C(C)=C/C[C@H]1C(=C)CCC2[C@](C)(C(=O)O)CCC[C@@]21C (stereo not given in full) | inconclusive: 14.1 µM [inhibitor, full curve, poor fit]
N/C(=N\NC(=O)c1ccc(Cl)cc1)c1cnccn1 | inconclusive: 22.4 µM [inhibitor, partial curve, poor fit]
CCCCN1CCC2C=CCC(C(=O)O)C2C1=O (stereo not given) | inactive
COc1ccc(-c2cc(C(F)(F)F)nc(SCC(=O)NC(C)c3ccccc3)n2)cc1 (stereo not given) | inactive
CC(CN1CCCC1)OC(=O)c1ccc(Cl)cc1Cl (stereo not given) | inconclusive: 89.1 µM [inhibitor, single point]
CCOc1cccc(C2/C(=C(/O)c3ccc4c(c3)CC(C)O4)C(=O)C(=O)N2CCN2CCOCC2)c1 (stereo not given) | inactive
COc1ccc(/C=C2\SC(=Nc3ccccc3OC)NC2=O)cc1 | inconclusive: 79.4 µM [inhibitor, partial curve]
O=C(c1ccc2ccccc2c1)N1CCN(Cc2ccccc2)CC1 | inconclusive: 89.1 µM [inhibitor, single point]
